Experimental findings from the supplement of paper PMC12819154, “High-throughput peptide-centric local stability assay extends protein–ligand identification to membrane proteins, tissues and bacteria” (Nature Structural & Molecular Biology, 2025) are described below.

The chains behind the UniProt entries cited, without tags or fusion partners. Where a name states a change or a piece, a line headed by the entry shows the natural chain unless it says otherwise.
UniProt Q9UBP9: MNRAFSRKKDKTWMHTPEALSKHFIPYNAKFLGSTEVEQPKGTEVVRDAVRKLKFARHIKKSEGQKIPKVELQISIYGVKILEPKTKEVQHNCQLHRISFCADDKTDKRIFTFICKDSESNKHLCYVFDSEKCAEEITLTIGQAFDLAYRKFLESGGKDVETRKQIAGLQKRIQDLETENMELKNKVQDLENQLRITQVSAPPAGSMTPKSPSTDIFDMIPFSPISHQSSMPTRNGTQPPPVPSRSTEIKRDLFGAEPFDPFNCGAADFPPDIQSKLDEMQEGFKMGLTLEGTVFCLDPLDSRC
UniProt Q9P1Q0: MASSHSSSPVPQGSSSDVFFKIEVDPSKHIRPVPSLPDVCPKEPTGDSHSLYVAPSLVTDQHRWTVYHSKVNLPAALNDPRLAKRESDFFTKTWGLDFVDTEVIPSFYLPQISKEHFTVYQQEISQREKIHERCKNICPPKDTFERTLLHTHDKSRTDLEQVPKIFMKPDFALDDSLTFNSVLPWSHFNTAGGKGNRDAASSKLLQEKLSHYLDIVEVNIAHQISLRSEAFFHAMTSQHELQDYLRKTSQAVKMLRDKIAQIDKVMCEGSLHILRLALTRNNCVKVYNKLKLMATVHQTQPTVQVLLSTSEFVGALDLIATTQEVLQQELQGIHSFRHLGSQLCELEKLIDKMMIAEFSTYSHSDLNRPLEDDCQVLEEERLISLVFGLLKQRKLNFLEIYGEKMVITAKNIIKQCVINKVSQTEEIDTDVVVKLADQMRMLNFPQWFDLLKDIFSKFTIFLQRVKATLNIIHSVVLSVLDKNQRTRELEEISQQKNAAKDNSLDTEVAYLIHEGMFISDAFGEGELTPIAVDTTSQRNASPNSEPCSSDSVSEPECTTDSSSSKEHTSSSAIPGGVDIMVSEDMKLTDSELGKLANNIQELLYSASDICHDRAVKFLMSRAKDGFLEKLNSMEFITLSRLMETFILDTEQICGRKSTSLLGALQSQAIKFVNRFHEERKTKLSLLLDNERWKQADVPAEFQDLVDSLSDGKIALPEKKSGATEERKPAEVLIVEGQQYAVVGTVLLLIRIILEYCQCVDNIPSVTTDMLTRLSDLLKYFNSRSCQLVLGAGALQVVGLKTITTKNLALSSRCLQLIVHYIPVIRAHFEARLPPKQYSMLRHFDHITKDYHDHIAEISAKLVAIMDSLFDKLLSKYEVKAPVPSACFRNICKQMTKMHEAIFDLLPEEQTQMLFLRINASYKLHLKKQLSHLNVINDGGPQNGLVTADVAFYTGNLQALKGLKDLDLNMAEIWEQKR
UniProt Q9UBZ9: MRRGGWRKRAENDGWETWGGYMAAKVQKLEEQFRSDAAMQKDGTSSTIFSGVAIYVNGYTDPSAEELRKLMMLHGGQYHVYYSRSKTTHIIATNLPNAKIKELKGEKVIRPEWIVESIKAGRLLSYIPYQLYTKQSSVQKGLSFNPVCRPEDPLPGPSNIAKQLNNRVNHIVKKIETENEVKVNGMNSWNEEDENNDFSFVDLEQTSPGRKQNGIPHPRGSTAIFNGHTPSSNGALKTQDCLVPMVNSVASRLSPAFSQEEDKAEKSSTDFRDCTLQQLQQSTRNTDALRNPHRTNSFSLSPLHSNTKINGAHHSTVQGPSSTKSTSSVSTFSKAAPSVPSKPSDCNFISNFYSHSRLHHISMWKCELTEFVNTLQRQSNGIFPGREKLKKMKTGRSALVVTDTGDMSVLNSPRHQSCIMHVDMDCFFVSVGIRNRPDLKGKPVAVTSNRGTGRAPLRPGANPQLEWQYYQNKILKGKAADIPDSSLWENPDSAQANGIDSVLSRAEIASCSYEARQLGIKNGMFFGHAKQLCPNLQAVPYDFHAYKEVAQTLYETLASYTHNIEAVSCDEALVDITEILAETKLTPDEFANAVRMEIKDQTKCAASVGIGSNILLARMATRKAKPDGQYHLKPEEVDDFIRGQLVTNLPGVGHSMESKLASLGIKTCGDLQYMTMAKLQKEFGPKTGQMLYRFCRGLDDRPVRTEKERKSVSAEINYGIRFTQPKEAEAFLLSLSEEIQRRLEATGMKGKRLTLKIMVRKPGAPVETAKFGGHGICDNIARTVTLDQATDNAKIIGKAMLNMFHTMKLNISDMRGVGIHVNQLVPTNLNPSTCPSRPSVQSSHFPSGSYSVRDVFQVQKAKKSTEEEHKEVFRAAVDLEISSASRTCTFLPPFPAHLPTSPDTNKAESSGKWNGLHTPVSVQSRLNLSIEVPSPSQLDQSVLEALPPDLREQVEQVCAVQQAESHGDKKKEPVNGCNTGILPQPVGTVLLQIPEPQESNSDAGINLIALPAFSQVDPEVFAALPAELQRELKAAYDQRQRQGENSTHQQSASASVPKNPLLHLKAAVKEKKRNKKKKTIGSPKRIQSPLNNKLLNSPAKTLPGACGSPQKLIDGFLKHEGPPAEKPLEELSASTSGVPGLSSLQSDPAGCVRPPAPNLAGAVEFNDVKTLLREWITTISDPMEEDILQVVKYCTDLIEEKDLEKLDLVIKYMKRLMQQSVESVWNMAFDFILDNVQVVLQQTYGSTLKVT
UniProt Q9UGV2: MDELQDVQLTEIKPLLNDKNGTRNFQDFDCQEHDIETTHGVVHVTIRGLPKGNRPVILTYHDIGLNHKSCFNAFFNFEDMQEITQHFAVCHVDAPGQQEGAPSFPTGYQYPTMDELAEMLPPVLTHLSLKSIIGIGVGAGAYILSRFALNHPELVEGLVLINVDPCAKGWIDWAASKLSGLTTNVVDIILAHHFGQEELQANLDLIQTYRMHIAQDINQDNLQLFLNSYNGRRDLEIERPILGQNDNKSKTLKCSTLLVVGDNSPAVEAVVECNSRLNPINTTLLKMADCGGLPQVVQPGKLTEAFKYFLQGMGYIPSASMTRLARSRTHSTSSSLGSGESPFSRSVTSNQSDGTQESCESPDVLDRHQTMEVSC
UniProt Q9NZ71: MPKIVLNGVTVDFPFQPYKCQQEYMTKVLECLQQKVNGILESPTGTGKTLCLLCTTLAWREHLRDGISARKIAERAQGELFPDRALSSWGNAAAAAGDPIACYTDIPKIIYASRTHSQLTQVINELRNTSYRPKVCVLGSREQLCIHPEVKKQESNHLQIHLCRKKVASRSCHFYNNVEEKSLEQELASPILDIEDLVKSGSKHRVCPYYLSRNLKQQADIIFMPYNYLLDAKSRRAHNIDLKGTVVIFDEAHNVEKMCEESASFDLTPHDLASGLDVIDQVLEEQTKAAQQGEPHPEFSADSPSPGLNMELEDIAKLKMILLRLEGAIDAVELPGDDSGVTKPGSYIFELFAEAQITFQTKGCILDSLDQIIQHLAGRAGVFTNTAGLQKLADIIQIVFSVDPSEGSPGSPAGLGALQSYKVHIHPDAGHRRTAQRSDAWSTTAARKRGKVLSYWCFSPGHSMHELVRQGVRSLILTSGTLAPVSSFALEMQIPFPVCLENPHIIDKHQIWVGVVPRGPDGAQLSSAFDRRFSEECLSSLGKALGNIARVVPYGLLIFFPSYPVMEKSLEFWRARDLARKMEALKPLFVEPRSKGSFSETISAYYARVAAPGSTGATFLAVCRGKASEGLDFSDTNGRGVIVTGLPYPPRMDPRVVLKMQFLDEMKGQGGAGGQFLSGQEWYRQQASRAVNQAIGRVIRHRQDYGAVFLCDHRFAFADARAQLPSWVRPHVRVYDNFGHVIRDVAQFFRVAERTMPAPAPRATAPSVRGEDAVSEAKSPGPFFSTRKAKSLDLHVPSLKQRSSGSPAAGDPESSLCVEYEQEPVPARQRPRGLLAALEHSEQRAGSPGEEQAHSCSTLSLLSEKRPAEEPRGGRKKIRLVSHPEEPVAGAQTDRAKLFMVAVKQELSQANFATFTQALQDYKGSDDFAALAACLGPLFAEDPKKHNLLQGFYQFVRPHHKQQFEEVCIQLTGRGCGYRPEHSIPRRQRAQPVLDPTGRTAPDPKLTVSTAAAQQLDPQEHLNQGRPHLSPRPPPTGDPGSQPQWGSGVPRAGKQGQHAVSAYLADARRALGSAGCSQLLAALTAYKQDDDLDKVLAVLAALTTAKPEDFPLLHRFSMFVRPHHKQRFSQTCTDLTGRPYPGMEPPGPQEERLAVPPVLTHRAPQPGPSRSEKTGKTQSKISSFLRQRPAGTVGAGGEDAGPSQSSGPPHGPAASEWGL
UniProt Q9P0J0, whole entry: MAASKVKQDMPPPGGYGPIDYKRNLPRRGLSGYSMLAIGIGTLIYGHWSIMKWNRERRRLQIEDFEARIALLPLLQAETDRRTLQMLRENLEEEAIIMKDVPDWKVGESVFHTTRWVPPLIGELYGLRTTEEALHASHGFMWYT
UniProt Q9UGP8: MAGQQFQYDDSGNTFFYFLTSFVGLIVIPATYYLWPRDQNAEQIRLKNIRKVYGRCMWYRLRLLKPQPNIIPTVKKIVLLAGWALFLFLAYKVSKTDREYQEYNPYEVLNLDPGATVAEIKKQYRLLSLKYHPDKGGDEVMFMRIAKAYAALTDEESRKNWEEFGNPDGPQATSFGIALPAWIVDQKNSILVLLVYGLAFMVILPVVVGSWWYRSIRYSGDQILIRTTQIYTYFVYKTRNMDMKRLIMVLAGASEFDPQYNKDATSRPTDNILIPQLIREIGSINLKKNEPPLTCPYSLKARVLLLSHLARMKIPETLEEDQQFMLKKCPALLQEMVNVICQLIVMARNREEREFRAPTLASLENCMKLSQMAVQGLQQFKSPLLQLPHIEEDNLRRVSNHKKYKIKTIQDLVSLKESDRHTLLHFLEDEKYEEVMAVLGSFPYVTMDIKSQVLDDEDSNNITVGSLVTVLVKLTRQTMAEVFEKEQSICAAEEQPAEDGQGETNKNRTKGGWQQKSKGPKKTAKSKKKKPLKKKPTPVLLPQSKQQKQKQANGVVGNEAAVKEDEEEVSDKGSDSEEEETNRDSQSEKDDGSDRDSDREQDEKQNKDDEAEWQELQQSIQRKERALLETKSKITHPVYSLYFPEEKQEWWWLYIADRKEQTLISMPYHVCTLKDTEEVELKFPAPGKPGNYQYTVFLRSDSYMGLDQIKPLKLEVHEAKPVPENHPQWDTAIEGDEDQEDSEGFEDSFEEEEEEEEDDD
UniProt Q9UJA5: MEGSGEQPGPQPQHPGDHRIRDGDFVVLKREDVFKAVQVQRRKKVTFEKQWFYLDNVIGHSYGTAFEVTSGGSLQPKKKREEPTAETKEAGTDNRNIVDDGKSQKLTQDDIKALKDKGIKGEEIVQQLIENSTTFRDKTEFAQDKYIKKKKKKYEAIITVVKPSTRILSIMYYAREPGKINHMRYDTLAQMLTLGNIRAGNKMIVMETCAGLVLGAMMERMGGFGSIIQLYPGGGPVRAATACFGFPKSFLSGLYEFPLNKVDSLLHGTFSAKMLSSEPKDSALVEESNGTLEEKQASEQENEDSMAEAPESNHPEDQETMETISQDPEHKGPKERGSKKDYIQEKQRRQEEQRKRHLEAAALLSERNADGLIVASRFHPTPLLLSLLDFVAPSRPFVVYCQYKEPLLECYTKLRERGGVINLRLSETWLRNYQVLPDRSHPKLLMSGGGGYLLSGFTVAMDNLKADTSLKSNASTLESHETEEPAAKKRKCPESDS
UniProt Q9P0K8: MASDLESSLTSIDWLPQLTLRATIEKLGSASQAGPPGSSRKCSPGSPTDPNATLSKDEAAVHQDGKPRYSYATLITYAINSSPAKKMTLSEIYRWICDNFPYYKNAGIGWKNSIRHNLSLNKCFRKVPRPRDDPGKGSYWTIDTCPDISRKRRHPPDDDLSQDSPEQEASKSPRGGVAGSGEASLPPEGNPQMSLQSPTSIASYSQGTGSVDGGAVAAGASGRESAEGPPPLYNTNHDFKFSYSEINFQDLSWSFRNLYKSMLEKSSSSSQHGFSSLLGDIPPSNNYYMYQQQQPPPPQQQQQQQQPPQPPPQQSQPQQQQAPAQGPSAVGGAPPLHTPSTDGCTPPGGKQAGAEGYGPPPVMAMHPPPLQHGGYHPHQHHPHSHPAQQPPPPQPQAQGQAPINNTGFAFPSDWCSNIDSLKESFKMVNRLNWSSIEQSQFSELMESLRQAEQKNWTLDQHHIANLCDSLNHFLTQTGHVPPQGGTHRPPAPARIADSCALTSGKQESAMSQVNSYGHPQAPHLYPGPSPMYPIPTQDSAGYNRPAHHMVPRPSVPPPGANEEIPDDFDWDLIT

Some of the results follow. Most entries show no effect beyond the scatter of the controls.

Compound in this test: CN[C@@H]1C[C@H]2O[C@@](C)([C@@H]1OC)n1c3ccccc3c3c4c(c5c6ccccc6n2c5c31)C(=O)NC4 [staurosporine]
Nature of the test: log2 fold change of tryptic peptide abundance, ligand vs vehicle (limited proteolysis) (log2 ratio); higher = more trypsin-susceptible (destabilized). Particulars: ligand concentration: 20 uM; sample: K562 cleared lysate; digestion: 4 min, 22 C (HT-PELSA RT4min, Orbitrap Astral).

Turning to “GULP1 (peptide sequence: EVQHNCQLHR, peptide start residue: 88) (UniProt Q9UBP9)”, the log2 fold change is 0.516.
In the case of “VPS54 (peptide sequence: EPTGDSHSLYVAPSLVTDQHR, peptide start residue: 43) (UniProt Q9P1Q0)” it was -0.651; in that of “REV1 (peptide sequence: AEIASCSYEAR, peptide start residue: 506) (UniProt Q9UBZ9)”, -0.329.
Turning to “NDRG3 (peptide sequence: GNRPVILTYHDIGLNHK, peptide start residue: 52) (UniProt Q9UGV2)”, the log2 fold change is 0.198.
As for “RTEL1 (peptide sequence: GPDGAQLSSAFDR, peptide start residue: 519) (UniProt Q9NZ71)”, the log2 fold change was -0.579.
“NDUFA13 (peptide sequence: IALLPLLQAETDRR, peptide start residue: 69) (UniProt Q9P0J0)”: the log2 fold change is -0.268.
On to “SEC63 (peptide sequence: KKPTPVLLPQSK, peptide start residue: 534) (UniProt Q9UGP8)”, for which the log2 fold change was -0.138.
For the target “TRMT6 (peptide sequence: NYQVLPDR, peptide start residue: 432) (UniProt Q9UJA5)”, the log2 fold change was -0.3.
In the case of “UniProt Q9NZI5 (peptide sequence: EVSSSEGIHHPISK, peptide start residue: 286)” it was 0.224; in that of “FOXJ2 (peptide sequence: LGSASQAGPPGSSR, peptide start residue: 27) (UniProt Q9P0K8)”, -0.103.
